Record: PubChem BioAssay AID1259254 (NCATS, 2017)
The whole screen tested about 59,000 reagents; below is a random part of them. Of all reagents, about 1,550 (2.6%) are marked active. 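G2 share is only a proxy for re-replication; each gene was hit by three separate siRNAs, and active genes were retested.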 Entries without a mark were called inactive. The numbers tell different reagents against one gene apart. Not all columns of the deposit are shown. No sequences are given here. Not stated in the record: the amount of reagent.

Purpose: 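Gene knock-downs that lead to re-replication, shown by excess G2 DNA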 (primary screen)
Cell system: human HCT116 colorectal cancer cells
Reagents: single siRNA against human genes
Duration: 3 days
Read-out: 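Nuclei stained with Hoechst and imaged; cell-cycle phase assigned by DNA content; G2 share scaled per plate, non-targeting siRNA 0%, GMNN siRNA 100%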
Reading the numbers: G2 robust z-score: higher = more G2 cells, more excess DNA replication
Active means: 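An siRNA counts as active if its G2 robust z-score lies at least 5 MADs above the screen median; here such calls match roughly 38% of GMNN control or more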

G2 robust z-score, by target gene and reagent
MTRF1L (mitochondrial translation release factor 1 like): #1 -1.09; #2 -1.34; #3 -0.544
LINC01191 (long independently transcribed non-coding RNA 1191): #1 1.21; #2 3.11; #3 -0.643
PGAM2 (phosphoglycerate mutase 2): #1 4.8; #2 -0.505; #3 -0.722
RSBN1 (round spermatid basic protein 1): #1 -0.713; #2 -0.325; #3 -0.508
NOP53 (NOP53 ribosome biogenesis factor): #1 0.217; #2 0.627; #3 1.84
PPHLN1 (periphilin 1): #1 0.0101; #2 0.0517; #3 -0.713
BCL2L1 (BCL2 like 1): #1 0.218; #2 1.4; #3 -0.19
PYDC1 (pyrin domain containing 1): #1 0.24; #2 2.43; #3 0.572
GRID2 (glutamate ionotropic receptor delta type subunit 2): #1 3.79; #2 -1.28; #3 1.53

5 entries from above, reformatted.
{"Target gene":"PPHLN1 (periphilin 1)","reagent":3,"G2 robust z-score":-0.713}
{"Target gene":"BCL2L1 (BCL2 like 1)","reagent":1,"G2 robust z-score":0.218}
{"Target gene":"BCL2L1 (BCL2 like 1)","reagent":2,"G2 robust z-score":1.4}
{"Target gene":"BCL2L1 (BCL2 like 1)","reagent":3,"G2 robust z-score":-0.19}
{"Target gene":"PYDC1 (pyrin domain containing 1)","reagent":1,"G2 robust z-score":0.24}

Next records follow.
G2 robust z-score, by target gene and reagent
ADCY4 (adenylate cyclase 4): #1 -1.47; #2 -0.646; #3 -0.497
TXNDC11 (thioredoxin domain containing 11): #1 -1.22; #2 1.75; #3 -1.09
STX17 (syntaxin 17): #1 0.05; #2 0.64; #3 3.92
BABAM1 (BRISC and BRCA1 A complex member 1): #1 0.692; #2 -0.292; #3 3.59
GSDMC (gasdermin C): #1 -0.3; #2 0.0888; #3 -0.523
UEVLD (UEV and lactate/malate dehyrogenase domains): #1 -1.4; #2 -0.709; #3 -1.44
NBAS (NBAS subunit of NRZ tethering complex): #1 -0.73; #2 0.153; #3 -0.0878
